The text below walks through data of the supplement of paper PMC12067093, “Discovery and optimisation of a covalent ligand for TRIM25 and its application to targeted protein ubiquitination” (Chemical Science, 2025).

By UniProt entry, the sequences of proteins in these tests, tags left out. Where a name states a change or a piece, a line headed by the entry shows the natural chain unless it says otherwise.
UniProt Q9H714: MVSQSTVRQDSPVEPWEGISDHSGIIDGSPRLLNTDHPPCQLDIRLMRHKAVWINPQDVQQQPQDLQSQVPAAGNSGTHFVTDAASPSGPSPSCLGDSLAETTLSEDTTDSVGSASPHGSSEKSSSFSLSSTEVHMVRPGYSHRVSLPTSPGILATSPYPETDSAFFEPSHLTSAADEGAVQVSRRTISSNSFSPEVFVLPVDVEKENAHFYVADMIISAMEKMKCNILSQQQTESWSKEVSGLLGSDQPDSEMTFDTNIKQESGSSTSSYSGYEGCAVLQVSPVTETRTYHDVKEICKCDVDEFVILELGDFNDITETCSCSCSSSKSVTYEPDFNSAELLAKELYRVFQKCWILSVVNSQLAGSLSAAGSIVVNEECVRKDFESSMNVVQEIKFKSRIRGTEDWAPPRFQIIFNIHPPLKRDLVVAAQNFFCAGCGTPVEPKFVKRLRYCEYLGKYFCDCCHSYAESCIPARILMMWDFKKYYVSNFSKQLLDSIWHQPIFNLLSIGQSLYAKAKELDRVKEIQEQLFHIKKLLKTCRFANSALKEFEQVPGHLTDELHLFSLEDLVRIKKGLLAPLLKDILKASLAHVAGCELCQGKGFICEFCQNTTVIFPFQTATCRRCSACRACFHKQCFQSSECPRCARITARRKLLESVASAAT
UniProt P23443: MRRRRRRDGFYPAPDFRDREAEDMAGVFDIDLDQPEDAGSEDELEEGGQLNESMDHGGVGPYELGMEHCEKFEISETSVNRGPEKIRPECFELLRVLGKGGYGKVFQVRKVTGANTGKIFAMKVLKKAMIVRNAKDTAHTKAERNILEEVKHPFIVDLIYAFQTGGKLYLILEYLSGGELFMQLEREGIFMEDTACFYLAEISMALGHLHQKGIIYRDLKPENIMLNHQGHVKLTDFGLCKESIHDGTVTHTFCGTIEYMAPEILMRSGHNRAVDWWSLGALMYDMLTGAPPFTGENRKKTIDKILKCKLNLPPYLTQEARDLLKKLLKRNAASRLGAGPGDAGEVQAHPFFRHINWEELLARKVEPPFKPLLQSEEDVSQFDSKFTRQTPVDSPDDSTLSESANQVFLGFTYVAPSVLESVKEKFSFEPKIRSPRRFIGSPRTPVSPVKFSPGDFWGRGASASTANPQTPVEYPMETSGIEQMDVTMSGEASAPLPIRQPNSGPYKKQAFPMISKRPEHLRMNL
UniProt Q96C34: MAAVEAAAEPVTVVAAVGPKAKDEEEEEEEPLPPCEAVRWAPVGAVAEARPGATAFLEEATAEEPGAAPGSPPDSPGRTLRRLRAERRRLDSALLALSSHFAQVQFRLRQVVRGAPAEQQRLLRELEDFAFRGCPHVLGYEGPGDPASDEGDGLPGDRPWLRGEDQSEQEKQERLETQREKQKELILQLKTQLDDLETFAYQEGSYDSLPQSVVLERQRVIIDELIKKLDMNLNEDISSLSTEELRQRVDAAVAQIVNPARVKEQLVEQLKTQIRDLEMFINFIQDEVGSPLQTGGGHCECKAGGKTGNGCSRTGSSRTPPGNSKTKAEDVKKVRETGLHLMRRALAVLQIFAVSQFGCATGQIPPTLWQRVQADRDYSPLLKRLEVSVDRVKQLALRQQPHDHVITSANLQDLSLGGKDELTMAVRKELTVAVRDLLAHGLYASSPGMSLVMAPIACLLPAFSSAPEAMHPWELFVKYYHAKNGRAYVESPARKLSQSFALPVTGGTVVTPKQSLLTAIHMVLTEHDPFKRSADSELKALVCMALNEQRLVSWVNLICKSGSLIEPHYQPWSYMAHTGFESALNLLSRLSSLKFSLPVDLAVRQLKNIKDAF
UniProt Q6PCB5: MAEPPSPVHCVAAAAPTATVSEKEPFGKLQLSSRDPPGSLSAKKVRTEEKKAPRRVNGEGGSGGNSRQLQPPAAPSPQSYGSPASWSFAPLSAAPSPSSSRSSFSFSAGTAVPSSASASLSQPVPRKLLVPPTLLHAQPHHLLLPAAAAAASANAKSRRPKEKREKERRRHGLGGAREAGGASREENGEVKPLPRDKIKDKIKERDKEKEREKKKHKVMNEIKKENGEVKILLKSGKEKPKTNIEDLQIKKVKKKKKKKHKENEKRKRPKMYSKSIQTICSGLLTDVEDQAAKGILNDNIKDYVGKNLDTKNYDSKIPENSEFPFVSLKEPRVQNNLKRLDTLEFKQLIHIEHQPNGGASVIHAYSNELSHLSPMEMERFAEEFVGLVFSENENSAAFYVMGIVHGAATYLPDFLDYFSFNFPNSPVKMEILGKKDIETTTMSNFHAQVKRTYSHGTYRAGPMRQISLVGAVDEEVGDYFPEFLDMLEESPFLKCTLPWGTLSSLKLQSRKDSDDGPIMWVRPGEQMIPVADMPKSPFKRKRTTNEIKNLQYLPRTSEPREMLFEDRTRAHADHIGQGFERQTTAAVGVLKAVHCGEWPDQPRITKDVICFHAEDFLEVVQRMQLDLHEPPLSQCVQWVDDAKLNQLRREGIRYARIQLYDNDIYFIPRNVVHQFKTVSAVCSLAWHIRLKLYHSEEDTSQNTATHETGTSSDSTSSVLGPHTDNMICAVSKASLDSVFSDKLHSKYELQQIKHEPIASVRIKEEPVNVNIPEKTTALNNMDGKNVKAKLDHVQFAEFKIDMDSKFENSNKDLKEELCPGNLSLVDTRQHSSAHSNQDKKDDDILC
UniProt Q9NYV6: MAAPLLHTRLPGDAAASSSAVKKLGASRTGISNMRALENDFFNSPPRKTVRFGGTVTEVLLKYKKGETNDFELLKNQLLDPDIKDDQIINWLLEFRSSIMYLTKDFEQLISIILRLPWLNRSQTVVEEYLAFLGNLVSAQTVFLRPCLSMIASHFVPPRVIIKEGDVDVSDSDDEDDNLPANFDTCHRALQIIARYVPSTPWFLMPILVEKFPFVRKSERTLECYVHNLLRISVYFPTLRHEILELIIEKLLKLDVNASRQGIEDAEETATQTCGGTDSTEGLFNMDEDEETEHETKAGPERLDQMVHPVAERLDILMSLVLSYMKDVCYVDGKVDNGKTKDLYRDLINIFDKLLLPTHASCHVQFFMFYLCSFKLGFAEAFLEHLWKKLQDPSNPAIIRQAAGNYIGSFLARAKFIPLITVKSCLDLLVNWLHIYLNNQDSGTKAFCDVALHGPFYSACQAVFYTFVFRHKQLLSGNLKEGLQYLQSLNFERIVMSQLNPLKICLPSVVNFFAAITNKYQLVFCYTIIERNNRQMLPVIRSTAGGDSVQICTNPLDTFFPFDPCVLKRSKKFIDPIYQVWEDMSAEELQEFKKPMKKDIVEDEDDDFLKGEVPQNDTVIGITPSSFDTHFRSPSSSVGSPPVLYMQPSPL
UniProt Q9Y230, whole entry, looked up: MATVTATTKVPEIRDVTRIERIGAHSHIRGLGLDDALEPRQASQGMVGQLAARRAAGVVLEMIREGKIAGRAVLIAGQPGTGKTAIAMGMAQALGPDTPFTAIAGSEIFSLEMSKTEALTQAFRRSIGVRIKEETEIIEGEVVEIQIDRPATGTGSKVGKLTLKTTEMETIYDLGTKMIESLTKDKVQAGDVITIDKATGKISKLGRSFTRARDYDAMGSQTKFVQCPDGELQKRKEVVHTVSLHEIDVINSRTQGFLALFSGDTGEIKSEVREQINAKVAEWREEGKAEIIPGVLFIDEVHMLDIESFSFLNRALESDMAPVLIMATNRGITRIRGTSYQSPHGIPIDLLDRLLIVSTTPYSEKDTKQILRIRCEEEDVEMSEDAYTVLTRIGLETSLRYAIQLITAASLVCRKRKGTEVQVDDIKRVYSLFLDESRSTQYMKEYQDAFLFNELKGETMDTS
UniProt P26447: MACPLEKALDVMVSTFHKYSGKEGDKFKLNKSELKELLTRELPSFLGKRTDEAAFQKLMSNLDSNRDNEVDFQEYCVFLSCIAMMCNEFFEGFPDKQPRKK
UniProt Q96T51: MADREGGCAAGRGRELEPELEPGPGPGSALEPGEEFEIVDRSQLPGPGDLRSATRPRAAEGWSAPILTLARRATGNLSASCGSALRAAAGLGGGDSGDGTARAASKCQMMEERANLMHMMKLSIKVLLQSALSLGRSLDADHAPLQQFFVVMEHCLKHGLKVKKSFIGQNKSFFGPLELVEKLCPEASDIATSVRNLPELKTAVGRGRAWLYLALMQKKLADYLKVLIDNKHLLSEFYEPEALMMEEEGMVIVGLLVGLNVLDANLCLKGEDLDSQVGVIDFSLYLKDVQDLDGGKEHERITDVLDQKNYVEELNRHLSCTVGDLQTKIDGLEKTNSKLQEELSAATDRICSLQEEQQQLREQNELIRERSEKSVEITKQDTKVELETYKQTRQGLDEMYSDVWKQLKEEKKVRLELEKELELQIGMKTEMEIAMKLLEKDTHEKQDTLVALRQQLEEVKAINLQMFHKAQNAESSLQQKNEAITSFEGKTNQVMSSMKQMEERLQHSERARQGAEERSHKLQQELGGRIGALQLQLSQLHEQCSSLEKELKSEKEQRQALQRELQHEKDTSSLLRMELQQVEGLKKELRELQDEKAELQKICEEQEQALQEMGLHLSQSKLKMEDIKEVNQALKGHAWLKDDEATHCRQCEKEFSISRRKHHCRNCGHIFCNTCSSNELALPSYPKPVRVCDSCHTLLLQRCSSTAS
UniProt P31350, whole entry, looked up: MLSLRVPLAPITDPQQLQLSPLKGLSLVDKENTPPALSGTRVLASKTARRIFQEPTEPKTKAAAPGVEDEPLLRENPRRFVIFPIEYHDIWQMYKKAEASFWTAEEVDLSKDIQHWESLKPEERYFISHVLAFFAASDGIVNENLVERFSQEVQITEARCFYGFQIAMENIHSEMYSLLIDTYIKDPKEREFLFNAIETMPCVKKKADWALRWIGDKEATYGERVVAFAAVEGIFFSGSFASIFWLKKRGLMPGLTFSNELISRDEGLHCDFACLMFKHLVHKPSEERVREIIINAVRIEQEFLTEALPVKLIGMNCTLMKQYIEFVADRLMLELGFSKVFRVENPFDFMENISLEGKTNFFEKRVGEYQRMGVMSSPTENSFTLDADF

The other results are listed elsewhere or left out.

Compound in this experiment: CC1Cc2ccccc2N1C(=O)C1CCCN(C1)C(=O)CCl (mixture of isomers) [TRIM25 ligand 11 (diastereomer mixture)]
The experiment can be described thus: probe-labelled cysteine peptide fold change vs DMSO (competition) (log2 fold change); higher = less target engagement (more negative = stronger competition). Conditions: THP-1, incubation time: 4 h.
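Note: competitive chemoproteomic profiling in live THP-1 cells with an iodoacetamide desthiobiotin (IA-DTB) probe, comparing probe-labelled peptide intensities in compound-treated cells against DMSO-treated controls.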

As to “RPS6_P62753_12_KLNISFPATGCQK (UniProt P62753)”, the “probe-labelled cysteine peptide fold change” value is -0.275 (10 µM) and -0.353 (50 µM).

“RUBCNL_Q9H714_437_DLVVAAQNFFCAGCGTPVEPK (UniProt Q9H714)”: the “probe-labelled cysteine peptide fold change” value (10 µM) was 0.0917 and the “probe-labelled cysteine peptide fold change” value (50 µM) was 0.00198.

Turning to “RPS6KB1_P23443_90_IRPECFELLR (UniProt P23443)”, the “probe-labelled cysteine peptide fold change” value (10 µM) is -0.0333 and the “probe-labelled cysteine peptide fold change” value (50 µM) was -0.166.

Take “RUNDC1_Q96C34_311_TGNGCSR (UniProt Q96C34)”: the “probe-labelled cysteine peptide fold change” value by setting is: (10 µM) 0.383; (50 µM) 0.21.

On to “RSBN1L_Q6PCB5_10_AEPPSPVHCVAAAAPTATVSEK (UniProt Q6PCB5)”, for which the “probe-labelled cysteine peptide fold change” value amounted to 0.0426 (10 µM) and 0.0361 (50 µM).

“RPS12_P25398_108_KVVGCSCVVVK (UniProt P25398)”: the “probe-labelled cysteine peptide fold change” value is -0.2 (10 µM) and -0.106 (50 µM).

Consider “RPS21_P63220_56_TYAICGAIR (UniProt P63220)”, for which the “probe-labelled cysteine peptide fold change” value was -0.0961 (10 µM) and -0.0375 (50 µM).

For the target “RRN3_Q9NYV6_329_DVCYVDGK (UniProt Q9NYV6)”, the “probe-labelled cysteine peptide fold change” value runs as follows: (10 µM) -0.198; (50 µM) 0.0406.

For “RPS14_P62263_31_KEEQVISLGPQVAEGENVFGVCHIFASFNDTFVHVTDLSGK (UniProt P62263)”, the “probe-labelled cysteine peptide fold change” value runs as follows: (10 µM) 0.12; (50 µM) 0.0425.

As for “RUVBL2_Q9Y230_413_YAIQLITAASLVCR (UniProt Q9Y230)”, the “probe-labelled cysteine peptide fold change” value runs as follows: (10 µM) -0.126; (50 µM) -0.00307.

As for “RPS20_P60866_70_KTPCGEGSK (UniProt P60866)”, the “probe-labelled cysteine peptide fold change” value (10 µM) turned out to be 0.0322 and the “probe-labelled cysteine peptide fold change” value (50 µM) is -0.055.

Take S100A4_P26447_3_ACPLEK (UniProt P26447): the “probe-labelled cysteine peptide fold change” value (10 µM) was -0.23 and the “probe-labelled cysteine peptide fold change” value (50 µM) was -0.151.

Turning to “RUFY1_Q96T51_81_ATGNLSASCGSALR (UniProt Q96T51)”, the “probe-labelled cysteine peptide fold change” value by setting is: (10 µM) 0.132; (50 µM) 0.163.

Turning to “RRM2_P31350_270_DEGLHCDFACLMFK (UniProt P31350)”, the “probe-labelled cysteine peptide fold change” value (10 µM) came out at 0.141 and the “probe-labelled cysteine peptide fold change” value (50 µM) stood at 0.14.

Consider “RPS3_P23396_119_ACYGVLR (UniProt P23396)”, for which the “probe-labelled cysteine peptide fold change” value is, setting by setting: (10 µM) 0.152; (50 µM) 0.116.
